{
  "sequences": {"note": "By UniProt entry, the sequences of proteins in these tests, tags left out.", "UniProt Q6ZSJ8": "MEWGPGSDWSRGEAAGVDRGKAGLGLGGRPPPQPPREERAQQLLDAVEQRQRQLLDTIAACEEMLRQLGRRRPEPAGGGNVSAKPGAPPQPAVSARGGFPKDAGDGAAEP", "UniProt Q96SB4": "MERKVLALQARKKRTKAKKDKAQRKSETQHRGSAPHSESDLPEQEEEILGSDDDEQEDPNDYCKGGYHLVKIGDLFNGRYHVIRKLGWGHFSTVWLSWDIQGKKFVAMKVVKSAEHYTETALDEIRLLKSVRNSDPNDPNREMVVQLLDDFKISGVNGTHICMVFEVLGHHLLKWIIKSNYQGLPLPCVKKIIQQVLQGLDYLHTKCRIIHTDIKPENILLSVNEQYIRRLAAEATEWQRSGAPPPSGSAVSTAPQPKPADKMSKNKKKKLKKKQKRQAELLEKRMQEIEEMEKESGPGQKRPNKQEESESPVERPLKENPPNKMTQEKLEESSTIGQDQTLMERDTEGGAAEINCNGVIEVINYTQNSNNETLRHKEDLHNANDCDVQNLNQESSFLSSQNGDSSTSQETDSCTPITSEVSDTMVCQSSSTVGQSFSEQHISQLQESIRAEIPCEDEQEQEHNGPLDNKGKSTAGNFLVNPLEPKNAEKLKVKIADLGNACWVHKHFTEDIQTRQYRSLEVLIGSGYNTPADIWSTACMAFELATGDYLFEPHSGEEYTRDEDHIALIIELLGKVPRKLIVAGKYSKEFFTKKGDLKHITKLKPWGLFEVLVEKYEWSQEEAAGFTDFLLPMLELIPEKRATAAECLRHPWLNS"},
  "source": "paper PMC12552961",
  "target": "GFP-C1orf122 (Chromosome 1 open reading frame 122) (UniProt Q6ZSJ8)",
  "assay": "co-IP; 293T cells transfected with GFP-C1orf122 and FLAG-SRPK1, lysed 48 h after transfection in RM buffer; anti-GFP magnetic beads, 4 °C overnight, four washes; Western blot",
  "note": "No constants are given. Whether binding was seen depends on the method and setting. In cells and extracts the contact can be indirect. Some binding calls cover weakened binding; strength is not graded here.",
  "data": [
    {"substance": "FLAG-SRPK1 (serine/arginine-rich protein-specific kinase 1) (from UniProt Q96SB4 1-655) (enzyme)", "values": [
      {"measurement": "binding", "result": "binds"}
    ]}
  ]
}
